Test results taken from PMC11602973, “Structural basis of nucleic acid recognition by the N-terminal cold shock domain of the plant glycine-rich protein AtGRP2”.
A weaker result is weaker than the reference pair of the same experiment. Tags and fusion partners may be left off the protein sequences shown.

Target: T1, AtGRP2-CSD1-90 WT (Arabidopsis thaliana) (UniProt Q41188)
T1 sequence (looked up): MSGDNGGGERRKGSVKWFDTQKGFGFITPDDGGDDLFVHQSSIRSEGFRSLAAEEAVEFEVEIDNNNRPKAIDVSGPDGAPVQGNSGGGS
Experiment: NMR HSQC titration
Conditions: 20 mM sodium phosphate pH 6.5, 50 mM NaCl, 25 C (fluorescence), NMR titrations in the same buffer plus 250 uM PMSF, 3 mM NaN3, 5% D2O, 298 K, recombinant protein, residues 1-90, protein details: N-terminal Trx(6 aa)-His6-TEV tag, cleaved

CCCCCCC [C7]: binds more weakly (CSPs lower than T7, similar to U7, single-stranded DNA).
UUUUUUU [U7]: binds more weakly.
